The text below walks through data of PubChem BioAssay AID504647 (National Center for Advancing Translational Sciences (NCATS), 2011).

Structures are written as SMILES. The list shows a part of the results. Shown are side measurements of this screen, not its main read-out; they come without a call.

This assay is described as follows: Assay for Inhibitors of Influenza NS1 Protein Function: Influenza virus replication assay in MDCK cells infected with virus A/PR/8/34. Conditions: MDCK infected influenza A/PR/8/34, virus titer TCID50; measured here: MDCK cell viability; at 5 µM; stronger effect = higher value. An excerpt:
NIH Chemical Genomics Center [NCGC]
NIH Molecular Libraries Probe Centers Network [MLPCN]
Assay Submitter (PI): Daniel Engel
Influenza is a world-wide public health problem and emerging forms of the virus have the potential to cause a pandemic of equal or greater magnitude to the outbreaks recorded in 1918, 1957 or 1968. Vaccine development is proceeding and there also exist two classes of anti-influenza compounds. However these therapeutic modalities are neither fully effective nor widely enough available to fulfill global needs. In addition their potential usefulness against newly emergent strains is not known. Efforts are needed to develop novel agents against influenza virus, including broad-spectrum agents. Identification of small molecules that inhibit NS1 function either directly or by interfering with specific cellular pathways may be a key to increasing our defense against the virus.
We have miniaturized and optimized a cell based assay in which NS1 from influenza A is expressed in the budding yeast S. cerevisiae. NS1 is a multi-functional protein that counters the host innate immune response and facilitates viral versus cellular gene expression. Expression of NS1 causes a pronounced slow growth phenotype in yeast due to its intrinsic molecular activities. Small molecules that suppress the slow growth phenotype can be identified by a straightforward growth recovery assay using optical density (OD) as the measurement. The same yeast strain not expressing NS1 was used as positive control in the yeast growth recovery assay. The present experiment attempted to confirm the activity of compounds observed in the primary screen.
This assay confirms the activity of compounds from the primary screen by measuring their affect on viral replication.
Protocol details are given in Basu et al. J. Vir. 83(4):1881-1891 2009. […] All media and sera were from Invitrogen. […] Confluent cell monolayers were infected at a multiplicity of infection (MOI) of 0.1 for 48 h in the presence or absence of 5uM compound. Compounds were added at the beginning of infection and were present throughout the infection. After 48 h virus titers were determined by standard TCID50 analysis.
The viability is the share of living cells, or the viability signal relative to a control. Molecule `CCCn1c(CCNc2nc(-c3ccc(Cl)c([N+](=O)[O-])c3)cs2)nc2cc(Cl)c(Cl)cc21` yielded a viability of 99.1%.
Next, `CN(C)c1ccc(NC(=O)CSCc2nc3c(nnn3Cc3ccc(F)cc3)c(=O)[nH]2)cc1`: 99.4%; `Cc1ccc(S(=O)(=O)Nc2ccccc2-c2ccccc2NS(=O)(=O)c2ccc(C)cc2)cc1`: 99.8%.
For `CC(C)(C)NC(=O)NC(=O)CN1CCN(c2cccc(Cl)c2)CC1`, the viability amounted to 99.2%.
